Measurements from PMC8944046.
Results are given in words; binding and its absence hold for the method and conditions named. Binding seen in cells or lysates may run through a third protein.

Target: T1, CDX2 (Caudal related homeodomain transcription 2) (UniProt Q99626)
T1 sequence: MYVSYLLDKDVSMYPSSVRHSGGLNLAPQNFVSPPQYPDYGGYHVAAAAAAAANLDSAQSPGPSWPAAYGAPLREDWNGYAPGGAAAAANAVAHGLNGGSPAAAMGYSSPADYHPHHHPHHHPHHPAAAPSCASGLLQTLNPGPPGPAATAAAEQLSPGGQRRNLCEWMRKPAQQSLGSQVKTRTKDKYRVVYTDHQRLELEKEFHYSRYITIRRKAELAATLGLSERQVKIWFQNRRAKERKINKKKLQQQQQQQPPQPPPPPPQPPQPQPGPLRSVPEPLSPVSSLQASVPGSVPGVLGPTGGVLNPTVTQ
Test: co-IP; CDX2 immunoprecipitated, immunoblot for Claudin-2; equal CDX2 loading in the IP panel preverified; extracts in RIPA buffer; cells not given

- binding: no binding
B1: Claudin-2 (protein, UniProt P57739 1-230)
chain: MASLGLQLVGYILGLLGLLGTLVAMLLPSWKTSSYVGASIVTAVGFSKGLWMECATHSTGITQCDIYSTLLGLPADIQAAQAMMVTSSAISSLACIISVVGMRCTVFCQESRAKDRVAVAGGVFFILGGLLGFIPVAWNLHGILRDFYSPLVPDSMKFEIGEALYLGIISSLFSLIAGIILCFSCSSQRNRSNYYDAYQAQPLATRSSPRPGQPPKVKSEFNSYSLTGYV
